Assay results taken from patent EP0647275B2 (Mount Sinai School of Medicine, priority 1992, dated 1994).
At least one read-out could not be matched to a standard name with certainty. Non-standard residues stand in square brackets, D forms with d. Residues, ends and D or L forms follow the SMILES beside them. d(pGlu) = O=C1CC[C@H](C(=O)O)N1

Target: T1, human GnRHR (Homo sapiens, UniProt P30968)
T1 construct: The human GnRH-R cDNA was subcloned into an expression vector, pSV2A, containing an SV40 early promoter; expressed in transfected cells; host or cells: COS-1 cells, transient DEAE-dextran transfection with pSV2A-human GnRH-R
T1 sequence (P30968 1-328): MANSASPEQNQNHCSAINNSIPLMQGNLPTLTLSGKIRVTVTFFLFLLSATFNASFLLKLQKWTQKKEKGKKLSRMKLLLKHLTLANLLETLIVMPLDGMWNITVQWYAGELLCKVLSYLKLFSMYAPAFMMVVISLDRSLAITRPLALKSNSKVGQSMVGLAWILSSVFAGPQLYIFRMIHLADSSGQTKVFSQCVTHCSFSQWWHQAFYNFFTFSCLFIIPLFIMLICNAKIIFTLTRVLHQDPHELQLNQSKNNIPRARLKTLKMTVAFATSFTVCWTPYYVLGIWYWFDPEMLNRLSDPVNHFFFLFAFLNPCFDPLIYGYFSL
Assay: Inositol phosphate production in COS-1 cells transfected with pSV2A-human GnRH-R
Type: cell-based
Details: GnRH 10^-8 M; calculated per Leslie 1987; read-out: κd derived from IC50 of inhibition of inositol phosphate production
Experimental: For studies on inositol phosphate production, 1.8 x 10^5 cells/well (12-well plates) were transfected with 1.5 µg DNA. Cells were assayed 48 hours after transfection.
Accumulation of [^3H]IP in the presence of LiCl was used as an index of inositol phosphate turnover. […] The reaction was terminated by the addition of a perchloric acid solution and phytic acid. After neutralizing with KOH, the inositol phosphates were separated on a Dowex ion exchange column and counted.

IC50	Compound
3.6 nM	CC(C)C[C@H](NC(=O)[C@@H](Cc1c[nH]c2ccccc12)NC(=O)[C@H](Cc1ccc(O)cc1)NC(=O)[C@H](CO)NC(=O)[C@@H](Cc1c[nH]c2ccccc12)NC(=O)[C@@H](Cc1ccccc1)NC(=O)[C@H]1CCC(=O)N1)C(=O)N[C@@H](CCCNC(=N)N)C(=O)N1CCC[C@H]1C(=O)NCC(N)=O [antagonist 5, [D-pGlu^1,D-Phe^2,D-Trp^3,6]GnRH] ([d(pGlu)][dF][dW]SY[dW]LRPG-NH2)
0.21 nM	[Ac-D-NaI^1,D-α-4-ClPhe^2,D-Pal^3,D-Arg^6, D-Ala^10]GnRH [antagonist 13]
